Results on two molecules are retold here after paper PMC7217487.

In experiment [1] the target is T1, IFN-λR1, full length membrane form (human (endogenous in primary hepatocytes, NHBE cells, PBMCs)) (UniProt Q8IU57).
T1 sequence: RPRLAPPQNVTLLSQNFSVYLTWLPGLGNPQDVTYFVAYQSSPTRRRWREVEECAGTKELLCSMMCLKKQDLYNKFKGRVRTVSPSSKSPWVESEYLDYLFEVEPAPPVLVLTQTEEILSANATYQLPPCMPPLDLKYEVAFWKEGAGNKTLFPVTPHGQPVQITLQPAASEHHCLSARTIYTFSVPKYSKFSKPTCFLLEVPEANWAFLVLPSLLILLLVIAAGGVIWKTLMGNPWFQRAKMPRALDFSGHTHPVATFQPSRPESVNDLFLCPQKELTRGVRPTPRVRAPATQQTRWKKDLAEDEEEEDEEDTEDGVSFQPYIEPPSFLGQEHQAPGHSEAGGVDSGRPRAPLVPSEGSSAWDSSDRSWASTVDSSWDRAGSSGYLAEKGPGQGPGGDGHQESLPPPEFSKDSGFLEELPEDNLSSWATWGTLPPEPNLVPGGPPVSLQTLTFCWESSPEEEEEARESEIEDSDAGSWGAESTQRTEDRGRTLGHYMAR
Briefly: flow cytometry on cells; His-tagged protein (IFN-λ3 1, 2 or 5 μg/ml) in PBS with 1% BSA added to cells on ice for 60 min, washed, detected with anti-His PE; background of the secondary antibody alone subtracted; only the binder purified.

For experiment [2], the target named is T2, recombinant sIFN-λR1-Fc (human) (UniProt Q8IU57).
T2 sequence: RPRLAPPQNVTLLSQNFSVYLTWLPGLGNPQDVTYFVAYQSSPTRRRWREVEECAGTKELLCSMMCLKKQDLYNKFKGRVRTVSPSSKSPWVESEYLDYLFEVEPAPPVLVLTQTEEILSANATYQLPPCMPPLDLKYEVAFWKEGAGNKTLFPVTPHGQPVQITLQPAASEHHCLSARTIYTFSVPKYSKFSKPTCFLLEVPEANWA
Briefly: flow cytometry on cells; His-tagged IFN-λ3 added to PBMCs or Huh7.5 cells together with sIFN-λR1-Fc, or after sIFN-λR1-Fc had bound to the cells for 45 min on ice and the cells were washed twice; Fc receptors blocked with human IgG; IFN-λ3 detected with anti-His PE; both purified.

These are yes or no findings as the source states them, for the method shown. Some results given as binding are weak or reduced against the parent protein; the word gives no strength. Tags and fused reporters may be left off the sequences shown.

B1: His-tagged IFN-λ3 (ligand, UniProt Q8IZI9 22-196)
chain: VPVARLRGALPDARGCHIAQFKSLSPQELQAFKRAKDALEESLLLKDCKCRSRLFPRTWDLRQLQVRERPVALEAELALTLKVLEATADTDPALGDVLDQPLHTLHHILSQLRACIQPQPTAGPRTRGRLHHWLHRLQEAPKKESPGCLEASVTFNLFRLLTRDLNCVASGDLCV
For B1, the binding result in experiment [1] and in experiment [2] was “binds” throughout.

B2: OBCAM, 6 His-tagged control protein (protein, UniProt Q14982 28-322)
chain: GVPVRSGDATFPKAMDNVTVRQGESATLRCTIDDRVTRVAWLNRSTILYAGNDKWSIDPRVIILVNTPTQYSIMIQNVDVYDEGPYTCSVQTDNHPKTSRVHLIVQVPPQIMNISSDITVNEGSSVTLLCLAIGRPEPTVTWRHLSVKEGQGFVSEDEYLEISDIKRDQSGEYECSALNDVAAPDVRKVKITVNYPPYISKAKNTGVSVGQKGILSCEASAVPMAEFQWFKEETRLATGLDGMRIENKGRMSTLTFFNVSEKDYGNYTCVATNKLGNTNASITLYGPGAVIDGVN
As for B2, in experiment [1], the binding entry is on record as “no binding”.
